# Measured values taken from the supplement of paper PMC12823440, “Inhibitors supercharge kinase turnover through native proteolytic circuits” (Nature, 2025).
# Sequences of proteins named here, by UniProt entry; tags and fusion partners are left off. A change or cut given only in a name is not applied to a line headed by its entry.
# UniProt P11362, whole entry, looked up: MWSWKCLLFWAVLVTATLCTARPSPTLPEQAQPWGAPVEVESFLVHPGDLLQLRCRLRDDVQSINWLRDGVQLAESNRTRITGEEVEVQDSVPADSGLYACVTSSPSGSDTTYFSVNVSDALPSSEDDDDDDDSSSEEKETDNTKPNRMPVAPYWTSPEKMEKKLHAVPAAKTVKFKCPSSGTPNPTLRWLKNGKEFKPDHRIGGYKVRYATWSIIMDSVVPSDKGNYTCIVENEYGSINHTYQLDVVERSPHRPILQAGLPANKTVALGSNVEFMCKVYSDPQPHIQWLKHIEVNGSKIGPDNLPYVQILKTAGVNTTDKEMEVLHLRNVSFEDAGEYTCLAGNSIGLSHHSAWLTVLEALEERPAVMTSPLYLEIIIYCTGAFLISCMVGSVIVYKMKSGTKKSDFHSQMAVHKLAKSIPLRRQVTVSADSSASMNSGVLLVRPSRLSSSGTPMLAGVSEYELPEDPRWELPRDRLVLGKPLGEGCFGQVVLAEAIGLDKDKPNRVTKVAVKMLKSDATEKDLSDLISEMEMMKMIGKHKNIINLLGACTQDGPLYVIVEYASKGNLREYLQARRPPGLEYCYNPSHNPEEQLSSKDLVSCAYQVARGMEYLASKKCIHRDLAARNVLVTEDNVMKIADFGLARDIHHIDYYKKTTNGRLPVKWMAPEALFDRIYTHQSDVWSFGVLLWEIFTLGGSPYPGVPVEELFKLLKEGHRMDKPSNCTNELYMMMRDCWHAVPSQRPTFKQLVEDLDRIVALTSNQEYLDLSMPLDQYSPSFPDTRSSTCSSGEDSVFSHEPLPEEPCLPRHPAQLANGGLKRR
# UniProt P36888, whole entry: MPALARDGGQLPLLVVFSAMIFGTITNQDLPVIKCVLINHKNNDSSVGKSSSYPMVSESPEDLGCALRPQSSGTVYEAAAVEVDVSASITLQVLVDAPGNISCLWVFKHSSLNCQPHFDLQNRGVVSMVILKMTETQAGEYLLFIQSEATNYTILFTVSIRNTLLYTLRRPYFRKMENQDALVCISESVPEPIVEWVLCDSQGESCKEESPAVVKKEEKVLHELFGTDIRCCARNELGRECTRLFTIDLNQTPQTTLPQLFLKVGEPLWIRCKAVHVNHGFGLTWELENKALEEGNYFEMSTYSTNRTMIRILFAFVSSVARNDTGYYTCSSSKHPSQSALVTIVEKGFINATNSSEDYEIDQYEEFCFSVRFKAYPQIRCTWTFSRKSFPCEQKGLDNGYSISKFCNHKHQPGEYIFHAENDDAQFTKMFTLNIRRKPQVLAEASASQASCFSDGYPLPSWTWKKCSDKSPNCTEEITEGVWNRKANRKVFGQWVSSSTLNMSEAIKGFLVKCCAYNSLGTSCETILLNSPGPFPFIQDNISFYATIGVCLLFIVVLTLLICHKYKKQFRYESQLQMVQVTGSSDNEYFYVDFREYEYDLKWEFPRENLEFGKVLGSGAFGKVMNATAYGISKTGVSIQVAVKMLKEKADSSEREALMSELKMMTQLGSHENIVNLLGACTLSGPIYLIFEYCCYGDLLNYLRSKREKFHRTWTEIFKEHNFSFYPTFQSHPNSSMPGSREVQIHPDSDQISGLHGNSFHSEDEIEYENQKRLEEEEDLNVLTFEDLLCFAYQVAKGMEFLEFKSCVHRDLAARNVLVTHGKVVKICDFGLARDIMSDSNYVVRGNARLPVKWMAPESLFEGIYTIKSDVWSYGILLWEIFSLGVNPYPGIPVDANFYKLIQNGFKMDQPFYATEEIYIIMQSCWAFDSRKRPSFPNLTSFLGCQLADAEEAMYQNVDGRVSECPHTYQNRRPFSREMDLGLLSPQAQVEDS
# UniProt P06241, whole entry, looked up: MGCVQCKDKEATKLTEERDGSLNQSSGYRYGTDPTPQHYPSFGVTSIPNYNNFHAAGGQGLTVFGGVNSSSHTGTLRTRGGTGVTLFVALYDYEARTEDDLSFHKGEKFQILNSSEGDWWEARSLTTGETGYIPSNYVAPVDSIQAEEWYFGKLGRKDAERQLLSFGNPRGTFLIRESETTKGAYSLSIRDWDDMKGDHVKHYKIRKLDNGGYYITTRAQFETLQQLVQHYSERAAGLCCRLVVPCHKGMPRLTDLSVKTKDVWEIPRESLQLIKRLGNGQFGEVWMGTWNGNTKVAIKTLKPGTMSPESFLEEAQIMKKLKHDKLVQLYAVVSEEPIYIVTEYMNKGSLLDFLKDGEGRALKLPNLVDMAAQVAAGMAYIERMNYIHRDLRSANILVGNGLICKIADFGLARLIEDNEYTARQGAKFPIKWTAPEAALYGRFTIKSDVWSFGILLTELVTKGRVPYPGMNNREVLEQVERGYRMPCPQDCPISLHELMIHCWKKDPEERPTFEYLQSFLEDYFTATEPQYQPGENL
# UniProt P49840: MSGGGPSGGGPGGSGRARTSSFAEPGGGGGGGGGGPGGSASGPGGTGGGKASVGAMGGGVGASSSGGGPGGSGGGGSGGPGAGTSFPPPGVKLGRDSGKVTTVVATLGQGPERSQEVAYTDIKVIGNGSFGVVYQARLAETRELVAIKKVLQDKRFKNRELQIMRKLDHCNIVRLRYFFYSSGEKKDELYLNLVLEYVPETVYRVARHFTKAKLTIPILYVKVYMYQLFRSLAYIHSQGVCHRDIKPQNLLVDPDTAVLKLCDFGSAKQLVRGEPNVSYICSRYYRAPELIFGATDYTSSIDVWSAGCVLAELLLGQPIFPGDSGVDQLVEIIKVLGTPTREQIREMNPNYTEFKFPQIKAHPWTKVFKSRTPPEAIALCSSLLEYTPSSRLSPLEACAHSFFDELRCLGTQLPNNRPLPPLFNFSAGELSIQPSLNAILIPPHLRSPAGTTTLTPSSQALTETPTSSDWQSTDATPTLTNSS
# UniProt Q9Y616: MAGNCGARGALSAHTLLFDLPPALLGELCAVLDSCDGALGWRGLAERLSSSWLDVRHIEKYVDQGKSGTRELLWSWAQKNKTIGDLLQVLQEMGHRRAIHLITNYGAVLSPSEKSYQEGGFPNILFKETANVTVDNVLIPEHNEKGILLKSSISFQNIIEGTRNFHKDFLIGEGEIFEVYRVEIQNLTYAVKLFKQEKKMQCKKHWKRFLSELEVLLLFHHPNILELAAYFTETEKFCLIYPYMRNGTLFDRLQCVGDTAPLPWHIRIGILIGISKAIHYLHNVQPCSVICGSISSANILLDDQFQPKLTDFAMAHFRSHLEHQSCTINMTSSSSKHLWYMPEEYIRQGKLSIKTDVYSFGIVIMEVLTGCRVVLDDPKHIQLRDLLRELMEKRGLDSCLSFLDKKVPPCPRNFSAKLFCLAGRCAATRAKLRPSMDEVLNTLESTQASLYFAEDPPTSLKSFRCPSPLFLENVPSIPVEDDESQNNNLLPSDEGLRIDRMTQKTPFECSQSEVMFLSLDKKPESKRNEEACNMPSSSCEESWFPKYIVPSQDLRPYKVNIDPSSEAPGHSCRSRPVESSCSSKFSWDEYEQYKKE
# UniProt P23458: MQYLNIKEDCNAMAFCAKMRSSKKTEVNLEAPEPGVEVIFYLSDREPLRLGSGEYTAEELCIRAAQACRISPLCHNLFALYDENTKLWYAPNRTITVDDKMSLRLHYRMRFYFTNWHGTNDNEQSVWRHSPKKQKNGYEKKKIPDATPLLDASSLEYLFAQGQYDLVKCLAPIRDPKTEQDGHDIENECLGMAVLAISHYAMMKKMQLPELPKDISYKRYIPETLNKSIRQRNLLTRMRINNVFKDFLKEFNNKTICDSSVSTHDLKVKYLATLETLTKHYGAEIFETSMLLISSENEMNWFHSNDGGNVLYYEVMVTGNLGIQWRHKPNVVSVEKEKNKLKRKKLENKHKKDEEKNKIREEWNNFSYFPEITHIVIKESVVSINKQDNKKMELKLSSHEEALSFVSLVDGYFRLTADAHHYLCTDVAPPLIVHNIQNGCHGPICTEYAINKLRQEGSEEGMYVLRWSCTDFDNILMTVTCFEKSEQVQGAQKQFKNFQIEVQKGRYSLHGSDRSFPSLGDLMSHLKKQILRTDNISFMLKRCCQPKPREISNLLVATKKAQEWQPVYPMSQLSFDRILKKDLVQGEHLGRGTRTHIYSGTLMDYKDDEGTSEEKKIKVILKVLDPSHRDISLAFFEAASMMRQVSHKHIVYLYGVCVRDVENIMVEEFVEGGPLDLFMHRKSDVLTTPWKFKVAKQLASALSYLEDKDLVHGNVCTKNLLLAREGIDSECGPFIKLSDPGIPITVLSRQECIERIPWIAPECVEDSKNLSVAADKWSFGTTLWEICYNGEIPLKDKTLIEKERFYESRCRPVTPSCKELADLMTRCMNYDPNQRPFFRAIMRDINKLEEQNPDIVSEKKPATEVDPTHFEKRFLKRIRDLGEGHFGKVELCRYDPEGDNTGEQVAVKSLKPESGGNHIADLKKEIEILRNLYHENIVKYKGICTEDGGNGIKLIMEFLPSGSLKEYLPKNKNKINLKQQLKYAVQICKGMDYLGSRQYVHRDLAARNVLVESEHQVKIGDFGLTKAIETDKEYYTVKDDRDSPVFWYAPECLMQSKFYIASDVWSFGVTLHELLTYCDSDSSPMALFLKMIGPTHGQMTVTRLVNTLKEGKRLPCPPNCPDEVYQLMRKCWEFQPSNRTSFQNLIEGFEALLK
# UniProt P06239: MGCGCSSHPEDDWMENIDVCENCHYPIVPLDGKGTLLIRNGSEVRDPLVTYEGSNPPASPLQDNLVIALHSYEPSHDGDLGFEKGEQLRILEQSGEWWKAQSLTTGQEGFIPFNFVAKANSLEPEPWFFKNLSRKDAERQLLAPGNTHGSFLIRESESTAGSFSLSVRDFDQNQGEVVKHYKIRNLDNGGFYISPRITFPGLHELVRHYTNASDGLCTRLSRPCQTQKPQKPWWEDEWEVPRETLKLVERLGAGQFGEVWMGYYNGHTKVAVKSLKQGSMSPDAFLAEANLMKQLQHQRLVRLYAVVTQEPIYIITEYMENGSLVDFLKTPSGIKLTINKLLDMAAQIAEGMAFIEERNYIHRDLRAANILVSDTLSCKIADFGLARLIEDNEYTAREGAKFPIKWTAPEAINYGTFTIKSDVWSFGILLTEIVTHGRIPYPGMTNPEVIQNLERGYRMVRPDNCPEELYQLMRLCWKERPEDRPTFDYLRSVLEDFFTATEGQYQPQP
# UniProt Q8IWU2: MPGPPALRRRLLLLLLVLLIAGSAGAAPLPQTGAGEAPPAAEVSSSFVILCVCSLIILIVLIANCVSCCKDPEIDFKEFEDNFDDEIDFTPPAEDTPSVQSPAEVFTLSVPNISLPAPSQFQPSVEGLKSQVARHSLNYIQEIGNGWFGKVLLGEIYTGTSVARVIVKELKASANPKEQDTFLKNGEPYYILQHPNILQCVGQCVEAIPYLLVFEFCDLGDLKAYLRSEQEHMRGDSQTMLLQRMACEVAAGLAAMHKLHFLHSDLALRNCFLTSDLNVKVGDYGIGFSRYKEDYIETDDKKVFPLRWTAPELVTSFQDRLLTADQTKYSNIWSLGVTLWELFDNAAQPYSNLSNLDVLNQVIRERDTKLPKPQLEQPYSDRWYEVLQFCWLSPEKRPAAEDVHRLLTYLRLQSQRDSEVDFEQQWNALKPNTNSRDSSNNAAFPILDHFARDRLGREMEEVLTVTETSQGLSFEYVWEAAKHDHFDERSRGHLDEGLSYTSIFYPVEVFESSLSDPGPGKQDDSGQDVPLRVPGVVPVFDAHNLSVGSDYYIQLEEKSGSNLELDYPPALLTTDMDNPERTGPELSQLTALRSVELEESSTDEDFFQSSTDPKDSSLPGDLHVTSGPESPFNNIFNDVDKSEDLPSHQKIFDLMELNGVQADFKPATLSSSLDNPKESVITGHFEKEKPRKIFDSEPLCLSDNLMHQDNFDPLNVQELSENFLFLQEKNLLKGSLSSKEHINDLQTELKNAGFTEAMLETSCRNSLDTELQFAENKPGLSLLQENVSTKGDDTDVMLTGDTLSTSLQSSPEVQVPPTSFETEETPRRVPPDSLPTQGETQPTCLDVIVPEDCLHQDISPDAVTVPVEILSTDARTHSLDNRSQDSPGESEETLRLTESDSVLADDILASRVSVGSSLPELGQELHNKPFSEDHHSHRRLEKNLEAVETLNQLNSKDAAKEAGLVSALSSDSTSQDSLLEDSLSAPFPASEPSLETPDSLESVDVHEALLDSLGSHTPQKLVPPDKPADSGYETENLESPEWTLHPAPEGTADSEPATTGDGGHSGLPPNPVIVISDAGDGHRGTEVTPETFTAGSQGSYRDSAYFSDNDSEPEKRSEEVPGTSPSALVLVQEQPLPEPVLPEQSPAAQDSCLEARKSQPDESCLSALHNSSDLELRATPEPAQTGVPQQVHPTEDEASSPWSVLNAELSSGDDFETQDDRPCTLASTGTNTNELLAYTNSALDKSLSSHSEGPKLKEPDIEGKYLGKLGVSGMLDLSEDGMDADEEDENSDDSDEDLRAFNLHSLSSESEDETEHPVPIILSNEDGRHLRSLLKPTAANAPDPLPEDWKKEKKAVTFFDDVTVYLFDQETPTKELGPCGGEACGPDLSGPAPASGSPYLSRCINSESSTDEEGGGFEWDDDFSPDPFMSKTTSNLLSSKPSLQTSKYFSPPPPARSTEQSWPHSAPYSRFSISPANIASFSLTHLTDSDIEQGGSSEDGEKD
# Structures can show the parent of a compound that is named as a salt. The list shows a part of the results. Hit calls seldom repeat between salt and free forms of one compound.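 Kinases, fused to nanoluciferase, were expressed in K562 cells; luminescence was measured every 4 h from 2 to 18 h as percent of control (DMSO = 100%, positive control = 0%). A time point is decreased if signal falls significantly (2 sigma). Hits were called by the authors by a rule that is not shown; the count of time points alone does not decide it.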
# Key:
# Assay in all cases: kinase-Nluc reporter destabilization hit call (1 = scored as downregulated) (binary); higher = compound decreases kinase abundance
# Conditions in all cases: K562, 2-18 h
# ERN1 = ERN1 (UniProt O75460)
# FGFR1 = FGFR1 (UniProt P11362)
# FGFR2 = FGFR2 (UniProt P21802)
# FGFR3 = FGFR3 (UniProt P22607)
# FGR = FGR (UniProt P09769)
# FLT3 = FLT3 (UniProt P36888)
# FYN = FYN (UniProt P06241)
# GSK3A = GSK3A (UniProt P49840)
# HER2 = HER2 (UniProt P04626)
# INSRR = INSRR (UniProt P14616)
# IRAK3 = IRAK3 (UniProt Q9Y616)
# JAK1 = JAK1 (UniProt P23458)
# LCK = LCK (UniProt P06239)
# LIMK1 = LIMK1 (UniProt P53667)
# LIMK2 = LIMK2 (UniProt P53671)
# LMTK2 = LMTK2 (UniProt Q8IWU2)
# LYN = LYN (UniProt P07948)
# MAP2K1 = MAP2K1 (UniProt Q02750)
# MAP2K2 = MAP2K2 (UniProt P36507)
# MAP4K2 = MAP4K2 (UniProt Q12851)
Structure (SMILES),kinase-Nluc reporter destabilization hit call (ERN1; 10 µM),kinase-Nluc reporter destabilization hit call (FGFR1; 10 µM),kinase-Nluc reporter destabilization hit call (FGFR2; 10 µM),kinase-Nluc reporter destabilization hit call (FGFR3; 10 µM),kinase-Nluc reporter destabilization hit call (FGR; 10 µM),kinase-Nluc reporter destabilization hit call (FLT3; 10 µM),kinase-Nluc reporter destabilization hit call (FYN; 10 µM),kinase-Nluc reporter destabilization hit call (GSK3A; 10 µM),kinase-Nluc reporter destabilization hit call (HER2; 10 µM),kinase-Nluc reporter destabilization hit call (INSRR; 10 µM),kinase-Nluc reporter destabilization hit call (IRAK3; 10 µM),kinase-Nluc reporter destabilization hit call (JAK1; 10 µM),kinase-Nluc reporter destabilization hit call (LCK; 10 µM),kinase-Nluc reporter destabilization hit call (LIMK1; 10 µM),kinase-Nluc reporter destabilization hit call (LIMK2; 10 µM),kinase-Nluc reporter destabilization hit call (LMTK2; 10 µM),kinase-Nluc reporter destabilization hit call (LYN; 10 µM),kinase-Nluc reporter destabilization hit call (MAP2K1; 10 µM),kinase-Nluc reporter destabilization hit call (MAP2K2; 10 µM),kinase-Nluc reporter destabilization hit call (MAP4K2; 10 µM),kinase-Nluc reporter destabilization hit call (ERN1; 2.5 µM),kinase-Nluc reporter destabilization hit call (FGFR1; 2.5 µM),kinase-Nluc reporter destabilization hit call (FGFR2; 2.5 µM),kinase-Nluc reporter destabilization hit call (FGFR3; 2.5 µM),kinase-Nluc reporter destabilization hit call (FGR; 2.5 µM),kinase-Nluc reporter destabilization hit call (FLT3; 2.5 µM),kinase-Nluc reporter destabilization hit call (FYN; 2.5 µM),kinase-Nluc reporter destabilization hit call (GSK3A; 2.5 µM),kinase-Nluc reporter destabilization hit call (HER2; 2.5 µM),kinase-Nluc reporter destabilization hit call (INSRR; 2.5 µM),kinase-Nluc reporter destabilization hit call (IRAK3; 2.5 µM),kinase-Nluc reporter destabilization hit call (JAK1; 2.5 µM),kinase-Nluc reporter destabilization hit call (LCK; 2.5 µM),kinase-Nluc reporter destabilization hit call (LIMK1; 2.5 µM),kinase-Nluc reporter destabilization hit call (LIMK2; 2.5 µM),kinase-Nluc reporter destabilization hit call (LMTK2; 2.5 µM),kinase-Nluc reporter destabilization hit call (LYN; 2.5 µM),kinase-Nluc reporter destabilization hit call (MAP2K1; 2.5 µM),kinase-Nluc reporter destabilization hit call (MAP2K2; 2.5 µM),kinase-Nluc reporter destabilization hit call (MAP4K2; 2.5 µM)
CCN(CC)CC(=O)Nc1c(C)cccc1C [Lidocaine],inactive: 0,inactive: 0,inactive: 0,inactive: 0,inactive: 0,inactive: 0,inactive: 0,inactive: 0,inactive: 0,inactive: 0,inactive: 0,inactive: 0,inactive: 0,inactive: 0,inactive: 0,inactive: 0,inactive: 0,inactive: 0,inactive: 0,inactive: 0,–,–,–,–,–,–,–,–,–,–,–,–,–,–,–,–,–,–,–,–
N#CCNC(=O)c1ccc(-c2ccnc(Nc3ccc(N4CCOCC4)cc3)n2)cc1 [Momelotinib sulfate],inactive: 0,inactive: 0,inactive: 0,inactive: 0,inactive: 0,inactive: 0,inactive: 0,inactive: 0,inactive: 0,inactive: 0,inactive: 0,inactive: 0,inactive: 0,inactive: 0,inactive: 0,inactive: 0,inactive: 0,inactive: 0,inactive: 0,inactive: 0,–,–,–,–,–,–,–,–,–,–,–,–,–,–,–,–,–,–,–,–
Cc1cc(Nc2ncc(Cl)c(Nc3ccccc3S(=O)(=O)C(C)C)n2)c(OC(C)C)cc1C1CCNCC1 [Ceritinib dihydrochloride],–,–,–,–,–,–,–,–,–,–,–,–,–,–,–,–,–,–,–,–,inactive: 0,inactive: 0,inactive: 0,inactive: 0,inactive: 0,inactive: 0,inactive: 0,inactive: 0,inactive: 0,inactive: 0,inactive: 0,inactive: 0,inactive: 0,inactive: 0,inactive: 0,inactive: 0,inactive: 0,inactive: 0,inactive: 0,inactive: 0
CC(C)Nc1cc(-c2c[nH]c(C(=O)N[C@H](CO)c3cccc(Cl)c3)c2)c(Cl)cn1 [Ulixertinib (hydrochloride)],inactive: 0,inactive: 0,inactive: 0,inactive: 0,inactive: 0,inactive: 0,inactive: 0,inactive: 0,inactive: 0,inactive: 0,inactive: 0,inactive: 0,inactive: 0,inactive: 0,inactive: 0,inactive: 0,inactive: 0,inactive: 0,inactive: 0,inactive: 0,–,–,–,–,–,–,–,–,–,–,–,–,–,–,–,–,–,–,–,–
COc1ccnc(C[S+]([O-])c2nc3cc(-n4cccc4)ccc3[nH]2)c1C (stereo not given) [Ilaprazole (sodium)],inactive: 0,inactive: 0,inactive: 0,inactive: 0,inactive: 0,inactive: 0,inactive: 0,inactive: 0,inactive: 0,inactive: 0,inactive: 0,inactive: 0,inactive: 0,inactive: 0,inactive: 0,inactive: 0,inactive: 0,inactive: 0,inactive: 0,inactive: 0,–,–,–,–,–,–,–,–,–,–,–,–,–,–,–,–,–,–,–,–
O=C(Nc1cnn2ccc(N3CCC[C@@H]3c3cc(F)ccc3F)nc12)N1CC[C@H](O)C1 [Larotrectinib],inactive: 0,inactive: 0,inactive: 0,inactive: 0,inactive: 0,inactive: 0,inactive: 0,inactive: 0,inactive: 0,inactive: 0,inactive: 0,inactive: 0,inactive: 0,inactive: 0,inactive: 0,inactive: 0,inactive: 0,inactive: 0,inactive: 0,inactive: 0,–,–,–,–,–,–,–,–,–,–,–,–,–,–,–,–,–,–,–,–
CC(C)NC[C@@H](C(=O)N1CCN(c2ncnc3c2[C@H](C)C[C@H]3O)CC1)c1ccc(Cl)cc1 [Ipatasertib (dihydrochloride)],inactive: 0,inactive: 0,inactive: 0,inactive: 0,inactive: 0,inactive: 0,inactive: 0,inactive: 0,inactive: 0,inactive: 0,inactive: 0,inactive: 0,inactive: 0,inactive: 0,inactive: 0,inactive: 0,inactive: 0,inactive: 0,inactive: 0,inactive: 0,–,–,–,–,–,–,–,–,–,–,–,–,–,–,–,–,–,–,–,–
CC(=O)Nc1cccc(-n2c(=O)n(C3CC3)c(=O)c3c(Nc4ccc(I)cc4F)n(C)c(=O)c(C)c32)c1 [Trametinib],inactive: 0,inactive: 0,inactive: 0,inactive: 0,inactive: 0,inactive: 0,inactive: 0,inactive: 0,inactive: 0,inactive: 0,inactive: 0,inactive: 0,inactive: 0,inactive: 0,inactive: 0,inactive: 0,inactive: 0,inactive: 0,inactive: 0,inactive: 0,–,–,–,–,–,–,–,–,–,–,–,–,–,–,–,–,–,–,–,–
COCCOc1cc(F)c2c(Nc3ccc(NC(=O)Cn4cc(C(C)C)nn4)cc3)ncnc2c1 [AZD3229 Tosylate],inactive: 0,inactive: 0,inactive: 0,inactive: 0,inactive: 0,inactive: 0,inactive: 0,inactive: 0,inactive: 0,inactive: 0,inactive: 0,inactive: 0,inactive: 0,inactive: 0,inactive: 0,inactive: 0,inactive: 0,inactive: 0,inactive: 0,inactive: 0,–,–,–,–,–,–,–,–,–,–,–,–,–,–,–,–,–,–,–,–
Nc1ncnc2c1c(-c1ccc(Oc3ccccc3)cc1)nn2[C@@H]1CCCNC1,–,–,–,–,–,–,–,–,–,–,–,–,–,–,–,–,–,–,–,–,inactive: 0,inactive: 0,inactive: 0,inactive: 0,inactive: 0,inactive: 0,inactive: 0,inactive: 0,inactive: 0,inactive: 0,inactive: 0,inactive: 0,inactive: 0,inactive: 0,inactive: 0,inactive: 0,inactive: 0,inactive: 0,inactive: 0,inactive: 0
CCCC(=O)Nc1ncnc2c1ncn2[C@@H]1O[C@@H]2COP(=O)(O)O[C@H]2[C@H]1OC(=O)CCC [Bucladesine (calcium)],inactive: 0,inactive: 0,inactive: 0,inactive: 0,inactive: 0,inactive: 0,inactive: 0,inactive: 0,inactive: 0,inactive: 0,inactive: 0,inactive: 0,inactive: 0,inactive: 0,inactive: 0,inactive: 0,inactive: 0,inactive: 0,inactive: 0,inactive: 0,–,–,–,–,–,–,–,–,–,–,–,–,–,–,–,–,–,–,–,–
CCCCCCCCc1ccc(CCC(N)(CO)CO)cc1 [Fingolimod (hydrochloride)],–,–,–,–,–,–,–,–,–,–,–,–,–,–,–,–,–,–,–,–,inactive: 0,inactive: 0,inactive: 0,inactive: 0,inactive: 0,inactive: 0,inactive: 0,inactive: 0,inactive: 0,inactive: 0,inactive: 0,inactive: 0,inactive: 0,inactive: 0,inactive: 0,inactive: 0,inactive: 0,inactive: 0,inactive: 0,inactive: 0
Nc1ncnc2c1c(-c1ccc(Oc3ccccc3)cc1)nn2[C@@H]1CCCNC1 [IBT6A (hydrochloride)],–,–,–,–,–,–,–,–,–,–,–,–,–,–,–,–,–,–,–,–,inactive: 0,inactive: 0,inactive: 0,inactive: 0,inactive: 0,inactive: 0,inactive: 0,inactive: 0,inactive: 0,inactive: 0,inactive: 0,inactive: 0,inactive: 0,inactive: 0,inactive: 0,inactive: 0,inactive: 0,inactive: 0,inactive: 0,inactive: 0
CC(C)NC[C@@H](C(=O)N1CCN(c2ncnc3c2[C@H](C)C[C@H]3O)CC1)c1ccc(Cl)cc1 [Ipatasertib],inactive: 0,inactive: 0,inactive: 0,inactive: 0,inactive: 0,inactive: 0,inactive: 0,inactive: 0,inactive: 0,inactive: 0,inactive: 0,inactive: 0,inactive: 0,inactive: 0,inactive: 0,inactive: 0,inactive: 0,inactive: 0,inactive: 0,inactive: 0,–,–,–,–,–,–,–,–,–,–,–,–,–,–,–,–,–,–,–,–
CN(C)C/C=C/C(=O)Nc1cc2c(Nc3ccc(F)c(Cl)c3)ncnc2cc1O[C@H]1CCOC1 [Afatinib (dimaleate)],–,–,–,–,–,–,–,–,–,–,–,–,–,–,–,–,–,–,–,–,inactive: 0,inactive: 0,inactive: 0,inactive: 0,inactive: 0,inactive: 0,inactive: 0,inactive: 0,active: 1,inactive: 0,inactive: 0,inactive: 0,inactive: 0,inactive: 0,inactive: 0,inactive: 0,inactive: 0,inactive: 0,inactive: 0,inactive: 0
Cc1cccc(/C=N/Nc2cc(N3CCOCC3)nc(OCCc3ccccn3)n2)c1 [Apilimod (mesylate)],inactive: 0,inactive: 0,inactive: 0,inactive: 0,inactive: 0,inactive: 0,inactive: 0,inactive: 0,inactive: 0,inactive: 0,inactive: 0,inactive: 0,inactive: 0,inactive: 0,inactive: 0,inactive: 0,inactive: 0,inactive: 0,inactive: 0,inactive: 0,–,–,–,–,–,–,–,–,–,–,–,–,–,–,–,–,–,–,–,–
C=CC(=O)Nc1cc(Nc2ncc(C(=O)OC(C)C)c(-c3cn(C)c4ccccc34)n2)c(OC)cc1N(C)CCN(C)C [Mobocertinib],inactive: 0,inactive: 0,inactive: 0,inactive: 0,inactive: 0,inactive: 0,inactive: 0,inactive: 0,active: 1,inactive: 0,inactive: 0,inactive: 0,inactive: 0,inactive: 0,inactive: 0,inactive: 0,inactive: 0,inactive: 0,inactive: 0,inactive: 0,–,–,–,–,–,–,–,–,–,–,–,–,–,–,–,–,–,–,–,–
CCCCCCCCc1ccc(CCC(N)(CO)CO)cc1 [Fingolimod],–,–,–,–,–,–,–,–,–,–,–,–,–,–,–,–,–,–,–,–,inactive: 0,inactive: 0,inactive: 0,inactive: 0,inactive: 0,inactive: 0,inactive: 0,inactive: 0,inactive: 0,inactive: 0,inactive: 0,inactive: 0,inactive: 0,inactive: 0,inactive: 0,inactive: 0,inactive: 0,inactive: 0,inactive: 0,inactive: 0

# Single entries from the list.
# In kinase-Nluc reporter destabilization hit call (LMTK2; 10 µM), Cc1cccc(/C=N/Nc2cc(N3CCOCC3)nc(OCCc3ccccn3)n2)c1 [Apilimod (mesylate)] reads inactive: 0
# In kinase-Nluc reporter destabilization hit call (FYN; 2.5 µM), CCCCCCCCc1ccc(CCC(N)(CO)CO)cc1 [Fingolimod] reads inactive: 0
